Several values for one entry are separate records, joined by “and”; a condition that tells them apart may be missing. Equal values may be shown once. The campaign covered roughly 400,000 compounds. About 13,000 (3.2%) were called active. This list was built around the results that the source calls inconclusive (neither active nor inactive); the mix of calls is not that of the screen. The call rests on the fitted dose curve; in most records, active means well fitted cell-killing curve with a large enough effect; inconclusive means small, poorly fitted or top-dose-only effect, or effect the other way; inactive means flat fitted curve, though single readings scatter. Where the call is inconclusive, the potency comes from a doubtful curve fit.
Experiment: qHTS assay for MDR1-selective chemotherapeutics: Primary screen using the drug-selected MDR subline cells KB-V1; further: nearly all actives have a fitted effect of over 60% in size
Conditions: KB-V1 MDR cells viability, CellTiter-Glo, 72 h; activity change, negative = cytotoxicity: at 46.1 µM (top of the series)
Procedure, shortened: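 Cytotoxicity via CellTiter-Glo luminescence after 72 h compound exposure at 37 degrees C. Cells: drug-selected KB-V1 line, DMEM phenol-red free plus 10% FBS. Compounds tested at multiple concentrations; normalized data fitted to concentration-effect curves.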
On the % scale 0 is the no-effect control and ±100 the full control effect; potency means the concentration at half of the fitted maximal effect.

| SMILES | Potency | activity change, negative = cytotoxicity |
| --- | --- | --- |
| CC(Sc1ncnc2ccccc12)C(=O)Nc1ccc2c(c1)OCO2 (stereo not given) | inconclusive: 29.1 µM [cytotoxic, partial curve, poor fit] | – |
| O=C(NNc1c(Cl)cncc1Cl)c1cccs1 | inconclusive: 4.11 µM [rising, partial curve, poor fit] | – |
| CC(=O)Nc1cnc(/C=C\CCCO)cn1 | – | inactive: 3.7% |
| CC1=C(C(=O)N2CCOCC2)CC(CC(=O)NCCCCc2ccccc2)C(=O)N1Cc1ccc(F)cc1 (stereo not given) | – | inactive: -10.8% |
| Cc1nn(Cc2c(Cl)cccc2Cl)c(Cl)c1/C=N/NC(=O)c1cccnc1 | – | inactive: 0% |
| CN(c1cccc(NC(=O)c2ccc(Cl)c(S(=O)(=O)Nc3ccccc3)c2)c1)S(C)(=O)=O | – | inactive: 15.3% |
| Cc1cccc(CC2CC(=O)N(c3nc4ccccc4s3)C2=O)c1 (stereo not given) | inconclusive: 2.59 µM [rising, partial curve, poor fit] | – |
| CCCc1nn2c(=O)cc(CSCC(=O)Nc3ccc(C)cc3)nc2s1 | inconclusive: 23.1 µM [cytotoxic, single point] | – |
| COc1ccc(N2CCN(C(=O)c3nn(-c4ccc(C)cc4)c(=O)n(C)c3=O)CC2)cc1 | – | inactive: 8.57% |
| COC(=O)C1=C(C)N(c2ccc(S(N)(=O)=O)cc2)C(=O)C1 | inconclusive: 29.1 µM [rising, single point] | – |
| O=c1n2c(c(O)n1C1CCCCC1)C(c1ccccc1)=Nc1ccccc1C2 | active: 16.4 µM | – |
| Cc1ccc(NC(=O)c2cc(S(=O)(=O)N3CCOCC3)cn2C)cc1Cl | inconclusive: 0.517 µM [rising, full curve] | – |
| CCNC(=O)NC(=O)CSc1ccc(S(=O)(=O)N2CCCCC2)cn1 | inconclusive: 23.1 µM [cytotoxic, single point] | – |
| FC(F)(F)c1nnc2c(Sc3ccccc3)nc3ccccc3n12 | inconclusive: 4.11 µM [cytotoxic, full curve, poor fit] | – |
| CCN(CC)c1ccc(NC(=O)Cn2c(C(C)NC(=O)c3ccccc3)nc3ccccc32)cc1 (stereo not given) | inconclusive: 4.61 µM [cytotoxic, partial curve] | – |
| Cc1nnc(SCc2nnc(-c3cccs3)o2)n1Cc1ccccc1 | inconclusive: 18.4 µM [cytotoxic, single point] | – |
| CCCCN1CC(COCc2ccccc2)Oc2cccc(F)c2S1(=O)=O (stereo not given) | – | inactive: 0% |
| O=S(=O)(c1ccccc1)N1CCN=C1SCc1ccccc1Cl | – | inactive: -17.2% |
| COc1cc2ncc3c(-c4ccccc4)nn(-c4ccc(C)cc4)c3c2cc1OC | inconclusive: 23.1 µM [cytotoxic, single point] | – |
| COc1ccc(CNC(=O)CN2C(=O)c3ccc([N+](=O)[O-])cc3C2=O)cc1 | – | inactive: 2.8% |
| CSC1=NC2(CCCCC2)CC12C=CC(=O)C=C2 | inconclusive: 25.9 µM [rising, single point] | – |
| N/C(=N\c1nc(CSc2nc3ccccc3s2)cc(=O)[nH]1)Nc1ccc(F)cc1 | – | inactive: -17.8% |
| Cc1ccc(S(=O)(=O)N2CCN(CC(=O)Nc3ccccc3Cl)CC2)cc1 | inconclusive: 29.1 µM [cytotoxic, single point] | – |

| SMILES | Potency | activity change, negative = cytotoxicity |
| --- | --- | --- |
| N#CC(/C(=N/S(=O)(=O)c1cccs1)c1ccccc1)c1nc2ccccc2[nH]1 (stereo not given) | inconclusive: 8.2 µM [cytotoxic, partial curve, poor fit] | – |
| CCOC(=O)C1=CCN(S(=O)(=O)c2ccc(F)cc2)C1c1cccc(Cl)c1 (stereo not given) | active: 8.2 µM | – |
| COc1ccc(NC(=O)c2sc3nc[nH]c(=O)c3c2C)cc1OC | inconclusive: 18.4 µM [rising, single point] | – |
| Cc1cc(Br)c(OCC(=O)NN)c2c1CCC2 | inconclusive: 0.0073 µM [cytotoxic, full curve, poor fit] | – |
| Cc1ccc(CNc2ncnc3cc(Cl)ccc23)o1 | active: 20.6 µM | – |
| Cc1ccc(OCC(=O)Nc2ccc3nc(SCC(=O)N(C)c4ccccc4)sc3c2)cc1 | inconclusive: 20.6 µM [cytotoxic, single point] | – |
| Clc1ccc(OCCCNCc2ccccc2)c(Br)c1 | active: 20.6 µM | – |
| COc1ccccc1C(=O)OCC(=O)Nc1ccc(N2CCCCC2)cc1 | – | inactive: 14.4% |
| COc1cc(C(=O)NCCC(C)C)ccc1OCc1ccc(Cl)cc1Cl | active: 14.6 µM | – |
| CN(C)/C=N/c1nc(-c2ccc3ccccc3c2)cs1 | – | inactive: 15.9% |
| COc1ccc(CNC(=O)C2CC(c3ccc(C(F)(F)F)cc3)=NO2)cc1 (stereo not given) | inconclusive: 29.1 µM [cytotoxic, single point] | – |
| CC(=O)c1ccc(Sc2nnnn2-c2ccccc2)c([N+](=O)[O-])c1 | inconclusive: 16.4 µM [cytotoxic, single point] | – |
| CCCCC(=O)N(C)c1c(CC)nc2c(OCCC3CCCCC3)cccn12 | inconclusive: 20.6 µM [cytotoxic, single point] | – |
| CCCCNc1c(-c2ccc(-c3cccc(Cl)c3)cc2)nc2ccccn12 | inconclusive: 5.9 µM [cytotoxic, single point] and inconclusive: 16.4 µM [cytotoxic, partial curve, poor fit] | – |
| CC(C)(CN1CCN(c2ccccc2)CC1)NS(=O)(=O)c1ccccc1 | inconclusive: 7.31 µM [cytotoxic, partial curve] | – |
| COc1cc(NC(=O)CC(C)S(=O)(=O)c2cc3c4c(c2)CCN4C(=O)CC3)cc(OC)c1 (stereo not given) | inconclusive: 29.1 µM [rising, single point] | – |
| COc1cc(C(=O)NCc2ccccc2Cl)ccc1OCC(=O)N1CCOCC1 | inconclusive: 16.4 µM [rising, single point] | – |
| O=C(O)c1ccc2nc(-c3ccco3)c(-c3ccco3)nc2c1 | inconclusive: 29.1 µM [rising, single point] | – |
| CCN1CCN(S(=O)(=O)c2ccc(Cl)c(C(=O)N(C)C3CCCCC3)c2)CC1 | – | inactive: 7.77% |
| N#CCC(=O)Nc1ccc(C(=O)OCC(=O)N2CCN(C(=O)c3ccco3)CC2)cc1 | – | inactive: 0.681% |
| O=C(CN1C(=O)c2ccccc2S1(=O)=O)NC1CCCCCC1 | – | inconclusive: 41.1% |
| CC(C)(C)c1ccc(S(=O)(=O)NCc2ccc(C(=O)N3CCOCC3)cc2)cc1 | inconclusive: 20.6 µM [cytotoxic, single point] | – |
